The other results are listed elsewhere or left out.
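Also: competitive chemoproteomic profiling in live THP-1 cells with an iodoacetamide desthiobiotin (IA-DTB) probe, comparing probe-labelled peptide intensities in compound-treated cells against DMSO-treated controls.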

The chains behind the UniProt entries cited, without tags or fusion partners. Where a name states a change or a piece, a line headed by the entry shows the natural chain unless it says otherwise.
UniProt Q9HAT2: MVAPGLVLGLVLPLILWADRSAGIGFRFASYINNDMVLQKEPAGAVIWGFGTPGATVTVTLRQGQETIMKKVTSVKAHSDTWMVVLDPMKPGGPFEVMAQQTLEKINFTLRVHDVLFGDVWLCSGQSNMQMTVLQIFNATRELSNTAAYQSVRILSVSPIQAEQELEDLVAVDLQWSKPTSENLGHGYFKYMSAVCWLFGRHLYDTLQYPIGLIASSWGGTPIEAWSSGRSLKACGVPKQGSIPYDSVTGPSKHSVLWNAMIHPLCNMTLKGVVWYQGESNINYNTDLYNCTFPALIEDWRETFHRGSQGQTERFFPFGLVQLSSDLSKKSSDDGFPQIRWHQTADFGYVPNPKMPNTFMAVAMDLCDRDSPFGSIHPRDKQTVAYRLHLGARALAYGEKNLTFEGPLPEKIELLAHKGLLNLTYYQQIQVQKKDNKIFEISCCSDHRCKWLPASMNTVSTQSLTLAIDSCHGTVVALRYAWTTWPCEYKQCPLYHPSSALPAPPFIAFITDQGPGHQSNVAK
UniProt P50452: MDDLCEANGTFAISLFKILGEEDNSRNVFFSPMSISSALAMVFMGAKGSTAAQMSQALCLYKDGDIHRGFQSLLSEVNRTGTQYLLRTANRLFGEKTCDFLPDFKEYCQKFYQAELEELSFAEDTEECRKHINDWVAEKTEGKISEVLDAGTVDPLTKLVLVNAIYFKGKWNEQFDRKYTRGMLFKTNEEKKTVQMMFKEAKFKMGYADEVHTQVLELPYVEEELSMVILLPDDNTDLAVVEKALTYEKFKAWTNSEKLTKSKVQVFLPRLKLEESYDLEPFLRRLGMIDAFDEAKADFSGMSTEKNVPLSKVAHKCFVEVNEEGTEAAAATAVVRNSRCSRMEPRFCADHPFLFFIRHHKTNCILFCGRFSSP
UniProt P50453: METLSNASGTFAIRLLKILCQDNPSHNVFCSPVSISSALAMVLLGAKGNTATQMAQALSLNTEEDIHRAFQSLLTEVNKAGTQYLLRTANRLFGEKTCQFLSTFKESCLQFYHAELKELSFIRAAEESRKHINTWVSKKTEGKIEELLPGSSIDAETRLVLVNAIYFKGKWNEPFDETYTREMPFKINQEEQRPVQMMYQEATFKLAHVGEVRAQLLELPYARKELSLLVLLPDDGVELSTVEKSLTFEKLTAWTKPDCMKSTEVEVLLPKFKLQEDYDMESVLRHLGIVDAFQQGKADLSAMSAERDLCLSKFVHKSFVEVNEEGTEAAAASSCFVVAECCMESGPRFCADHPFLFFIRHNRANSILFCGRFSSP
UniProt Q9UGK8: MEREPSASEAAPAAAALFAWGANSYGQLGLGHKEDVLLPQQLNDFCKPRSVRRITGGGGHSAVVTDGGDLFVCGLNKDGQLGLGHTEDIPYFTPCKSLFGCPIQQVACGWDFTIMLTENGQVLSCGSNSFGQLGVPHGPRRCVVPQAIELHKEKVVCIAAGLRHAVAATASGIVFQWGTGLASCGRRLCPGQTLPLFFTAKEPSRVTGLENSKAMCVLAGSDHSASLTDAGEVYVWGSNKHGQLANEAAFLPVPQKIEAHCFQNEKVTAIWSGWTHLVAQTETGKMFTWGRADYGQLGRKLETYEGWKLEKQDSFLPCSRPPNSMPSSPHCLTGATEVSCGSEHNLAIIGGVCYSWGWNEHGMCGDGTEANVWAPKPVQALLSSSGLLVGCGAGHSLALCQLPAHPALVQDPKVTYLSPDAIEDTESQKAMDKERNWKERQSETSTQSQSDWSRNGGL
UniProt Q15477, whole entry, looked up: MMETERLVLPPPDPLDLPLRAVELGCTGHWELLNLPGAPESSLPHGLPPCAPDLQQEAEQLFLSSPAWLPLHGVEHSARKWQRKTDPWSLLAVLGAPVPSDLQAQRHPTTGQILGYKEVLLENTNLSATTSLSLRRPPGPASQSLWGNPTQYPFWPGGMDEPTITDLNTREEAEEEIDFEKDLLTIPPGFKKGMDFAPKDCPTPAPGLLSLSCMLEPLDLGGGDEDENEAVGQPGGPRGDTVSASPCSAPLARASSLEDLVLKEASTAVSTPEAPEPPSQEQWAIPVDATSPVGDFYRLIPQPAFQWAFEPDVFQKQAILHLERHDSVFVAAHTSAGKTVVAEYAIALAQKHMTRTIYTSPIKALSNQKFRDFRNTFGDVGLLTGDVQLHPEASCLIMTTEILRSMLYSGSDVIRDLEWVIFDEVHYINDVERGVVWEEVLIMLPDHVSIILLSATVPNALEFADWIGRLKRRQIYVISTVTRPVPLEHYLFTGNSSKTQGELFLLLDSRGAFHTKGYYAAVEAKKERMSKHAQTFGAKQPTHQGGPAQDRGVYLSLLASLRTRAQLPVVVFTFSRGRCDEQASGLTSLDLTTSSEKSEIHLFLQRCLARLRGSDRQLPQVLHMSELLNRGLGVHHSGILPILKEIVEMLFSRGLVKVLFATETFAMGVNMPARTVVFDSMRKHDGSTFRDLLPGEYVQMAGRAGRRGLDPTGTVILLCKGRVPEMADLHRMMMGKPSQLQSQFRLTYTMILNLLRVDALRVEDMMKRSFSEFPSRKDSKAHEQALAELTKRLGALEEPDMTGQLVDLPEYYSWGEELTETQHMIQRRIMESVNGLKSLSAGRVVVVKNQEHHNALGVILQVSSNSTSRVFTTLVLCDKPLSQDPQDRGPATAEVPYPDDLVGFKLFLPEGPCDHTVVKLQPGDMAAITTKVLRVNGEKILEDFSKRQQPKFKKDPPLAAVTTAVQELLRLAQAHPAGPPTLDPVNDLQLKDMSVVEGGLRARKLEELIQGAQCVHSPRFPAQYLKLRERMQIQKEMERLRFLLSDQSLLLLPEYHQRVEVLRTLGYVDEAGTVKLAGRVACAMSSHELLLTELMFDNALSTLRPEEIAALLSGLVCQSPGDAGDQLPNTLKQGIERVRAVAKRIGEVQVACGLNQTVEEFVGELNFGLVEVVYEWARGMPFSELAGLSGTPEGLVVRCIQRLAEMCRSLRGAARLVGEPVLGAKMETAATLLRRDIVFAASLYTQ
UniProt P41440: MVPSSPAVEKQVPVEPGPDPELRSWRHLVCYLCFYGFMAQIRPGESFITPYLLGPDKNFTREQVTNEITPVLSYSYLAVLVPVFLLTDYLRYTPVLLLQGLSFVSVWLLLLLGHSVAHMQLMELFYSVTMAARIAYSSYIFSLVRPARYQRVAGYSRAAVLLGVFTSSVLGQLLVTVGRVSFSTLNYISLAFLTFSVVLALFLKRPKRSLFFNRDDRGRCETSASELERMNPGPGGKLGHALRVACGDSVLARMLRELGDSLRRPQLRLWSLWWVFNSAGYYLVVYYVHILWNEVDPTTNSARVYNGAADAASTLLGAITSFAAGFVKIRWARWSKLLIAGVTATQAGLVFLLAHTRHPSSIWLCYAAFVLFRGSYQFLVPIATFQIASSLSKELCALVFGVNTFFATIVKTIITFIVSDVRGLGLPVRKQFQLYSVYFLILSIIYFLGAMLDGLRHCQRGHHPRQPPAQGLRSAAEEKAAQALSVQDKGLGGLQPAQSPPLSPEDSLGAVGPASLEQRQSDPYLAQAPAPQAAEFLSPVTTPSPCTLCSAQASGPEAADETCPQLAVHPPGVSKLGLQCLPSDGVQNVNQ
UniProt Q99961: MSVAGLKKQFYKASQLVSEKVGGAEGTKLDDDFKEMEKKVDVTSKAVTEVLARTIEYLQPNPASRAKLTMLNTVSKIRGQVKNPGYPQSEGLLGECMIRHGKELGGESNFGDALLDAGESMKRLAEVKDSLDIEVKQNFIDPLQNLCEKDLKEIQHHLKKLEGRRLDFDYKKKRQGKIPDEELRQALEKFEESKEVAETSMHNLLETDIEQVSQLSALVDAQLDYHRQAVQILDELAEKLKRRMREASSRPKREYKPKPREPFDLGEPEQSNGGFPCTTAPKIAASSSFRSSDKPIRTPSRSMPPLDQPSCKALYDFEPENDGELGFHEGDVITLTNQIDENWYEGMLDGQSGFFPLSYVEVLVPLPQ
UniProt Q9Y2K2: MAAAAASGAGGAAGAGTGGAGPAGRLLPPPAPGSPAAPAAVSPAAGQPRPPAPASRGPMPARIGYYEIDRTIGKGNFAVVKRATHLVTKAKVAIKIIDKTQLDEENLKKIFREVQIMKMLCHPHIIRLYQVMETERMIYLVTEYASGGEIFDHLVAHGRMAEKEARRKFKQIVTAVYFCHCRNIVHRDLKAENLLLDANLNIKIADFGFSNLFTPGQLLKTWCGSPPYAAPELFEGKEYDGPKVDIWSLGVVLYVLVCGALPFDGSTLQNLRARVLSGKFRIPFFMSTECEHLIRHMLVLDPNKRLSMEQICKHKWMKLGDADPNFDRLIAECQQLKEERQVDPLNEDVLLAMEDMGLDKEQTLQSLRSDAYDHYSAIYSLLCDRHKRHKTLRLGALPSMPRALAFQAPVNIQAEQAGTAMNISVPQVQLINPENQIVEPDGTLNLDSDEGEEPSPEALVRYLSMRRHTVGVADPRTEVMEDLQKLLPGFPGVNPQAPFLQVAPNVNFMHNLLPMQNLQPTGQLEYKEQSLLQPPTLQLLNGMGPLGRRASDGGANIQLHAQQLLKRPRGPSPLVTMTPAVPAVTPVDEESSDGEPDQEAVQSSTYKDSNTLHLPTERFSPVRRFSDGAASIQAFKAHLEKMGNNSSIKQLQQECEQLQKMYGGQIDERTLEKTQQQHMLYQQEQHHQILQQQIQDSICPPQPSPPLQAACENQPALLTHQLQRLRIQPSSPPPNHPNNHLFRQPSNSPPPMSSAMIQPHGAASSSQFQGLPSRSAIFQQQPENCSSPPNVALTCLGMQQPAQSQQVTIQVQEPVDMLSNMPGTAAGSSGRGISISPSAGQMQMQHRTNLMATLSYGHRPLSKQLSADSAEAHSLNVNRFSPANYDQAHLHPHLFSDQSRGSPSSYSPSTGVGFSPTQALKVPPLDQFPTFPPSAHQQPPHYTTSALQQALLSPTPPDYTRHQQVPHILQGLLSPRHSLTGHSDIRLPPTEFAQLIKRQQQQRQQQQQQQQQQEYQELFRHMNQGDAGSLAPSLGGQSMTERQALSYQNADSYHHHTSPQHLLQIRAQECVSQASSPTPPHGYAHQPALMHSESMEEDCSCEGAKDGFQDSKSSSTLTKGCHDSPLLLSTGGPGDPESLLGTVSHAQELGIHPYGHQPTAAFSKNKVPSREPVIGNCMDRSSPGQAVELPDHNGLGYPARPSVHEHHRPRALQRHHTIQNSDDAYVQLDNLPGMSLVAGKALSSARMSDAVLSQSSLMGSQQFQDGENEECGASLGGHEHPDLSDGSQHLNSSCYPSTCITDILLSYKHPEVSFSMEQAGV
UniProt P34897: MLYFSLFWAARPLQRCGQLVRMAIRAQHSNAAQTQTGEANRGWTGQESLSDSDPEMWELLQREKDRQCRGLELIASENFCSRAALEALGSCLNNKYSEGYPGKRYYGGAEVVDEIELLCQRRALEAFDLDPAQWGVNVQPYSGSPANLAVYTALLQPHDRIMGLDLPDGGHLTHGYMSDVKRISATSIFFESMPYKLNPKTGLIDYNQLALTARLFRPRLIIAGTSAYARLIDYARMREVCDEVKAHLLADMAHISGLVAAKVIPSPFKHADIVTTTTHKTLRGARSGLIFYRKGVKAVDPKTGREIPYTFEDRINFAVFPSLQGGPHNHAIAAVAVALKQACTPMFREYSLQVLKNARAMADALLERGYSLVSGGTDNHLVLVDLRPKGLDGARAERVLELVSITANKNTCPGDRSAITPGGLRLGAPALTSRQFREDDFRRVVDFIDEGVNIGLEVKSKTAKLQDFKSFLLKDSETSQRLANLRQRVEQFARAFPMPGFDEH
UniProt P08697: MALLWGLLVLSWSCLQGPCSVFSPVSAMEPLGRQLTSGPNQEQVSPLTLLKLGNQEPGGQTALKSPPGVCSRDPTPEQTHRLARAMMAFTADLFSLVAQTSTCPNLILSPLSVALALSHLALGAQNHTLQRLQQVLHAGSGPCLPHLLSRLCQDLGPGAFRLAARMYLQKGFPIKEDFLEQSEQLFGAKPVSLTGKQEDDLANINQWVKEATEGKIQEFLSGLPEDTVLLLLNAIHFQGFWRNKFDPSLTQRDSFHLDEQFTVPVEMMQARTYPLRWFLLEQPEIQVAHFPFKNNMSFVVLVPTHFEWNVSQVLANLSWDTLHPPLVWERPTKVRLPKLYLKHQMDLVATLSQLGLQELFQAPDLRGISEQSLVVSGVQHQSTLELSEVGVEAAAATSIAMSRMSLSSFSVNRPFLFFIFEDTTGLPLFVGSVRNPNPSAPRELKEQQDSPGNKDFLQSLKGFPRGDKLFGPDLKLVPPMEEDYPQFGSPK
UniProt Q9HC21: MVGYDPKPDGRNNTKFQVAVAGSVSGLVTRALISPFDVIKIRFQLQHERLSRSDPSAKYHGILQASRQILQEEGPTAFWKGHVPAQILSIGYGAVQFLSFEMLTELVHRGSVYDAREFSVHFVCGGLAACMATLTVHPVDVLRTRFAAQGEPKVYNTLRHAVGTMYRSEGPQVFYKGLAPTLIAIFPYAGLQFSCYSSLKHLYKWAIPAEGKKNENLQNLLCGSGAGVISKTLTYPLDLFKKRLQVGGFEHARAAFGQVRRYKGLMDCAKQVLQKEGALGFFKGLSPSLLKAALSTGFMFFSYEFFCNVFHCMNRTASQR

Compound in the test: CC1Cc2ccccc2N1C(=O)C1CCCN(C1)C(=O)CCl (mixture of isomers) [TRIM25 ligand 11 (diastereomer mixture)]
Briefly: probe-labelled cysteine peptide fold change vs DMSO (competition) (log2 fold change); higher = less target engagement (more negative = stronger competition). The note with it: 10 µM; THP-1; incubation time: 4 h.
With “SIAE_Q9HAT2_367_MPNTFMAVAMDLCDRDSPFGSIHPR (UniProt Q9HAT2)”, the “probe-labelled cysteine peptide fold change” value is -0.176.
In the case of “SERPINB8_P50452_98_TCDFLPDFK (UniProt P50452)”, the “probe-labelled cysteine peptide fold change” value came to 0.00497.
For the target “SERPINB9_P50453_259_LTAWTKPDCMK (UniProt P50453)”, the “probe-labelled cysteine peptide fold change” value was found to be 0.00664.
The value for “SERGEF_Q9UGK8_73_ITGGGGHSAVVTDGGDLFVCGLNK (UniProt Q9UGK8)” was -0.0306.
In the case of “SKIV2L_Q15477_913_LFLPEGPCDHTVVK (UniProt Q15477)”, the “probe-labelled cysteine peptide fold change” value worked out at 0.126.
Turning to “SLC19A1_P41440_220_CETSASELER (UniProt P41440)”, the “probe-labelled cysteine peptide fold change” value came out at 0.0189.
Turning to “SH3GL1_Q99961_277_EPFDLGEPEQSNGGFPCTTAPK (UniProt Q99961)”, the “probe-labelled cysteine peptide fold change” value is 0.0065.
With “SETX_Q7Z333_884_NEELVIFSFHENNCK (UniProt Q7Z333)”, the “probe-labelled cysteine peptide fold change” value stood at 0.05.
With “SETDB1_Q15047_781_RLEECLPTGVYECNKR (UniProt Q15047)”, the “probe-labelled cysteine peptide fold change” value was -0.124.
The value for “SIK3_Q9Y2K2_290_IPFFMSTECEHLIR (UniProt Q9Y2K2)” was -0.0975.
To “SHMT2_P34897_119_RYYGGAEVVDEIELLCQR (UniProt P34897)” belongs -0.108; to “SETDB1_Q15047_582_LFYLPHVCSYTCLSR (UniProt Q15047)”, -0.142.
As for “SETDB1_Q15047_1207_QFYDGEESCYIIDAK (UniProt Q15047)”, the “probe-labelled cysteine peptide fold change” value was -0.0777.
“SERPINF2_P08697_152_LCQDLGPGAFR (UniProt P08697)”: the “probe-labelled cysteine peptide fold change” value was determined as 0.591.
To “SLC25A19_Q9HC21_222_KNENLQNLLCGSGAGVISK (UniProt Q9HC21)” belongs -0.0148; to “SF3B2_Q13435_661_IPGLNSPIPESCSFGYHAGGWGKPPVDETGK (UniProt Q13435)”, 0.209.

The record behind these values is the supplement of paper PMC12067093, “Discovery and optimisation of a covalent ligand for TRIM25 and its application to targeted protein ubiquitination” (Chemical Science, 2025).
